From publication PMC9573699 (Molecules, 2022)

Experiment: general procedure: Fmoc solid-phase peptide synthesis; Fmoc-[D-Arg(Pbf)]6-Rink amide resin (0.18 mmol/g); Fmoc-Rink Amide MBHA resin (0.61 mmol/g) for 11a
Settings: whole synthesis, 254 nm, scale of the general procedure 3.3…14 µmol

PEPTIDE1{[NDBF-COCH2CO].[dR].[dR].[dR].[dR].[dR].[dR].[am]}$$$$V2.0
final HPLC purity: 96.5%

HELM strings list residues between dots; [ac] is acetyl, [am] amide, other brackets name non-standard units.
